Hit rate of the full screen: of about 53,000 sequences, about 3,700 (7%) were called active.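 How the source made its calls: active means gene knockdowns whose robust z-score for IL-1 alpha signal is at least 2 or at most -2, so actives lie on both sides; inactive means the rest.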 Some of the results follow.
Assay: Components of the Cytosolic LPS Sensing Pathway: Gene Identification via Genome-wide siRNA Screen;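 further: robust z of the log signal after scaling to non-targeting control siRNA wells of the plate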
Conditions: RAW264.7 macrophages, IL-1a HTRF, actives lie on both sides, screened at 100 nM (by protocol), cells primed 5 h with Pam3CSK4 first
Summary of the method: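 Three distinct siRNAs per gene were tested singly at 100 nM in RAW264.7 macrophages. Following Pam3CSK4 priming and 24 hour LipidA transfection, IL-1a secretion was read by HTRF.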

For GGACUGUGACAAAGCCUAUTT against Klk1b1, which z-score is on record?
Its z-score is inactive: -0.129.

Which z-score does the source give for GGAUUCUCAGAAUGCUGGUTT against Polr3f here?
Its z-score is inactive: 1.31.

Which z-score does the source give for GCCGAGCAGAUGUACAGAATT against Zfp39 here?
The z-score was active: 2.93.

For GGAAAAUGGUUCUUUCUGCTT against Abhd12, which z-score is on record?
Its z-score is inactive: -1.22.

For CCAGGUAUUCUUAAUAGACTT against Zfp207, which z-score is on record?
Its z-score is inactive: -1.56.

For GCGAGUCGUGAUUGACAACTT against Pnkp, which z-score is on record?
Its z-score is inactive: 0.311.

Which z-score does the source give for GGACUUUUUUCCAGAUUAUTT against Paip1 here?
The z-score was inactive: 1.31.

For GGUCAUUCAGUGGUGCACCTT against Skp1, which z-score is on record?
Its z-score is inactive: -0.00227.

Which z-score does the source give for CCUAAGCUUAGAUCAACAUTT against Dhx36 here?
Its z-score is inactive: -0.735.

With CCCAUAACAUUGGUGAUUATT against Vmn1r235 as the sequence, how does the z-score read?
The z-score was inactive: -0.205.

For UCGAGUGAAGCAGUCUCCATT against Fam189a1, which z-score is on record?
Its z-score is active: -2.13.

For GCUAUGUCAACAGUAACAUTT against Mmel1, which z-score is on record?
Its z-score is inactive: -0.683.

With GCAUCUAUUGGAUUUACAUTT against Nup153 as the sequence, how does the z-score read?
The z-score was inactive: 0.62.

With CCCACAGAAUCACUCCAAGTT against Utp14a as the sequence, how does the z-score read?
Its z-score is inactive: -0.211.

With AUGCGUCCUUCACCAACGATT against Tmem158 as the sequence, how does the z-score read?
Its z-score is active: -3.28.

Which z-score does the source give for CCCAUCAUUAGAAUUACUUTT against Vdac2 here?
Its z-score is inactive: 1.75.

For GGUUAUAUUAUGUAGCCUATT against Klf17, which z-score is on record?
Its z-score is inactive: 0.332.

With GGACUCAAAAGUCCCUGUATT against Adgrg3 as the sequence, how does the z-score read?
Its z-score is inactive: -1.65.

With GGUGGGCUCAAGAACUUCUTT against Lypd11 as the sequence, how does the z-score read?
Its z-score is inactive: -0.12.

With GGACUUAUGCCGACAGCUUTT against Tnni3 as the sequence, how does the z-score read?
Its z-score is inactive: 0.0039.

With GCACGUUCAGUGCACACCUTT against Nubp1 as the sequence, how does the z-score read?
Its z-score is active: 2.59.

With “GGUCUUGUUUCUUGAGACCTT against C130050O18Rik” as the sequence, how does the z-score read?
The z-score was inactive: 0.393.

With GCUGAACAGGUGGUACAAUTT against B3gnt2 as the sequence, how does the z-score read?
The z-score was inactive: -0.612.

Which z-score does the source give for GGAGCAAAAUUCACAGUCUTT against Bcl7a here?
The z-score was inactive: -0.25.

For GGAACUAACCAACGACUAATT against Tdrp, which z-score is on record?
The z-score was inactive: 0.0936.

With GGUUUAUGCUGUGAAUACATT against Nupl1 as the sequence, how does the z-score read?
Its z-score is inactive: -0.967.

With CCCAGGCACUUGUUUACAGTT against Stim2 as the sequence, how does the z-score read?
Its z-score is inactive: -0.454.

For GCACAUUUACAGCCUAAUGTT against Cacul1, which z-score is on record?
The z-score was inactive: -0.0731.

With GGCACGAUGAGCUCUCCUATT against Cstb as the sequence, how does the z-score read?
The z-score was inactive: -1.64.

For GGCCUCAAGCAGACUUUGATT against Myo9b, which z-score is on record?
Its z-score is inactive: -0.991.

For CCAUAUCCCUGGACUAGAGTT against Pglyrp4, which z-score is on record?
The z-score was inactive: -0.515.

With GCUAACUGCUACUAAAAUATT against Ndp as the sequence, how does the z-score read?
The z-score was inactive: 0.0189.

With CCCUCUACAAUAAGAUGCATT against Rusc2 as the sequence, how does the z-score read?
Its z-score is inactive: 1.37.

With GGGUGACUGAACUUAGAAATT against Cd209c as the sequence, how does the z-score read?
Its z-score is inactive: -0.673.

For GGUUUACAAGAGUUACAGUTT against Brpf1, which z-score is on record?
The z-score was inactive: 0.493.

With GCAGAUCAGAGACAGAGUUTT against Olfr582 as the sequence, how does the z-score read?
The z-score was inactive: -0.137.

For GGUGAUGGUUGGGUUUCUCTT against Olfr1449, which z-score is on record?
The z-score was inactive: -0.987.

With CGUACCUAAGCAUACCAGCTT against Gpr20 as the sequence, how does the z-score read?
The z-score was active: 4.94.

With CCAUAGAACAAGCUACACCTT against Cd160 as the sequence, how does the z-score read?
The z-score was inactive: -0.157.

Which z-score does the source give for GGUGAAAGUUUACCUUCGATT against Kif20a here?
Its z-score is inactive: -1.71.

With AGCAUCCUAAAUUCAAAAATT against Gm5409 as the sequence, how does the z-score read?
The z-score was inactive: 1.12.

For GGAACUUUAGUUUGCGUAUTT against Emp2, which z-score is on record?
The z-score was inactive: -0.236.

With GGAUAAUUGCUCAAGCCUGTT against Serac1 as the sequence, how does the z-score read?
The z-score was inactive: 0.688.

Which z-score does the source give for GGAUUCAGUCAAGAAUUUGTT against Dhx29 here?
Its z-score is inactive: -0.0935.

With GGGAGAAGUGUAACAAAUUTT against Gm14461 as the sequence, how does the z-score read?
The z-score was inactive: -0.329.

Which z-score does the source give for GGAGGGUCUCCUAAUUUUUTT against Kdelr1 here?
Its z-score is inactive: 0.557.

With GCUUGAUCUUGCAUUUGGUTT against Smyd3 as the sequence, how does the z-score read?
Its z-score is inactive: 0.5.

For CCAAGGCCGAAAAGCCUGUTT against Rps19bp1, which z-score is on record?
Its z-score is inactive: -0.183.

For CGAACAUGAGUGGAUUGUCTT against Morn5, which z-score is on record?
Its z-score is inactive: -1.36.

For GCAUUUAAUCCUGCACUCCTT against Lrp10, which z-score is on record?
The z-score was inactive: -0.104.

Which z-score does the source give for GGACACCACCAAUCUUGACTT against Arsg here?
The z-score was inactive: -1.57.

With GGUACCAUUAGUGGAGUCCTT against Hoxb9 as the sequence, how does the z-score read?
The z-score was inactive: -0.794.

With GGUCAGAUUAACAAAUUCGTT against Proz as the sequence, how does the z-score read?
Its z-score is inactive: -0.188.

For GGUGACUAACGAGAUCAUUTT against Slc19a1, which z-score is on record?
Its z-score is inactive: 0.913.

With GGUCUUUGCCCUACAAACATT against Myof as the sequence, how does the z-score read?
The z-score was inactive: 0.523.

For CCUUUUUGAUCGUUAUGAUTT against Dnajc11, which z-score is on record?
Its z-score is inactive: -0.696.

With GGCACAUUAGUAGAACACATT against Sorcs2 as the sequence, how does the z-score read?
Its z-score is inactive: -0.243.

Which z-score does the source give for CCAUCACCAGUCGAGAUGCTT against H13 here?
Its z-score is inactive: -0.521.

For GCCCUUCAGUAUUGACCUGTT against Tmem175, which z-score is on record?
The z-score was inactive: 0.785.

With GGAUUGAGUCCUAUGAAGGTT against Stard3nl as the sequence, how does the z-score read?
Its z-score is inactive: -1.09.

For GGUCUCACAGCAGUACUCATT against Clk4, which z-score is on record?
The z-score was inactive: -1.46.

With GCUGCCUACCUGUGAAAGUTT against Pgam2 as the sequence, how does the z-score read?
Its z-score is active: 2.82.

Which z-score does the source give for GCCACCUAAUUUACAAUCUTT against Ccn3 here?
The z-score was inactive: 0.573.

For GGUGCUCAACAAGUGGACUTT against Htr1a, which z-score is on record?
Its z-score is inactive: -0.319.

For GGUAUUUCCACUGUCCAGCTT against Cnih3, which z-score is on record?
Its z-score is inactive: -0.0157.

With GGACGAAGGUUUCUUUGAGTT against Samd8 as the sequence, how does the z-score read?
The z-score was inactive: -0.488.

For GGUCAUGAAAAAGCUAACCTT against Dppa3, which z-score is on record?
Its z-score is inactive: -1.72.

For GGAGUUCGUACCCUUAUCCTT against Rtel1, which z-score is on record?
The z-score was active: -2.2.

From PubChem BioAssay AID1508600 (Functional Genomics Laboratory (NCATS/FGL), 2020)
